Measurements taken from PMC4200421, “A distinct tethering step is vital for vacuole membrane fusion” (eLife, 2014).
These are yes or no findings as the source states them, for the method shown. Some binding calls cover weakened binding; strength is not graded here. Where a sequence is shown, tags or fusion partners need not be part of it.

Biological target: T1, Vam3p (vacuolar Qa-SNARE), on 3Q-SNARE proteoliposomes (S. cerevisiae) (UniProt Q12241)
T1 sequence: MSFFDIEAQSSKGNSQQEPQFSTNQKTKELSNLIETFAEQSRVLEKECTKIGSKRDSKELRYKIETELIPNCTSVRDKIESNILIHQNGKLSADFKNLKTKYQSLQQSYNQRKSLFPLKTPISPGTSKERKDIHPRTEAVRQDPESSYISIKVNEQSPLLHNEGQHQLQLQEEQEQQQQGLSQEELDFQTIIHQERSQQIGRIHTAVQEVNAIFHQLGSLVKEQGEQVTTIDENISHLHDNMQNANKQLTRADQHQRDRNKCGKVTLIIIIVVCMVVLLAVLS
Assay: co-IP; association of Nyv1p with 3Q-SNAREs after detergent solubilisation (RIPA buffer); co-IP with anti-Vam3p carried out with increasing concentrations of GST-Nyv1p; immunoblot with anti-Nyv1p; both purified

binding: binds
B1: GST-His6-3Csite-Nyv1p (protein, UniProt Q12255 1-253)
chain: MKRFNVSYVEVIKNGETISSCFQPFQKNENYGTITSANEQITPVIFHNLIMDMVLPKVVPIKGNKVTKMSMNLIDGFDCFYSTDDHDPKTVYVCFTLVDMPKILPIRILSGLQEYESNATNELLSSHVGQILDSFHEELVEYRNQTLNSSGNGQSSNGNGQNTISDIGDATEDQIKDVIQIMNDNIDKFLERQERVSLLVDKTSQLNSSSNKFRRKAVNIKEIMWWQKVKNITLLTFTIILFVSAAFMFFYLW
